From the supplement of paper PMC6411743
± gives the standard deviation of the averaged measurements. This is a selection; strong and weak results do not stand in their true shares.

Protein sequences, listed by entry. Tags and fused reporters are not part of them. Lines headed by an entry give the natural chain unless they say otherwise; changes in a name come on top.
UniProt Q86X10: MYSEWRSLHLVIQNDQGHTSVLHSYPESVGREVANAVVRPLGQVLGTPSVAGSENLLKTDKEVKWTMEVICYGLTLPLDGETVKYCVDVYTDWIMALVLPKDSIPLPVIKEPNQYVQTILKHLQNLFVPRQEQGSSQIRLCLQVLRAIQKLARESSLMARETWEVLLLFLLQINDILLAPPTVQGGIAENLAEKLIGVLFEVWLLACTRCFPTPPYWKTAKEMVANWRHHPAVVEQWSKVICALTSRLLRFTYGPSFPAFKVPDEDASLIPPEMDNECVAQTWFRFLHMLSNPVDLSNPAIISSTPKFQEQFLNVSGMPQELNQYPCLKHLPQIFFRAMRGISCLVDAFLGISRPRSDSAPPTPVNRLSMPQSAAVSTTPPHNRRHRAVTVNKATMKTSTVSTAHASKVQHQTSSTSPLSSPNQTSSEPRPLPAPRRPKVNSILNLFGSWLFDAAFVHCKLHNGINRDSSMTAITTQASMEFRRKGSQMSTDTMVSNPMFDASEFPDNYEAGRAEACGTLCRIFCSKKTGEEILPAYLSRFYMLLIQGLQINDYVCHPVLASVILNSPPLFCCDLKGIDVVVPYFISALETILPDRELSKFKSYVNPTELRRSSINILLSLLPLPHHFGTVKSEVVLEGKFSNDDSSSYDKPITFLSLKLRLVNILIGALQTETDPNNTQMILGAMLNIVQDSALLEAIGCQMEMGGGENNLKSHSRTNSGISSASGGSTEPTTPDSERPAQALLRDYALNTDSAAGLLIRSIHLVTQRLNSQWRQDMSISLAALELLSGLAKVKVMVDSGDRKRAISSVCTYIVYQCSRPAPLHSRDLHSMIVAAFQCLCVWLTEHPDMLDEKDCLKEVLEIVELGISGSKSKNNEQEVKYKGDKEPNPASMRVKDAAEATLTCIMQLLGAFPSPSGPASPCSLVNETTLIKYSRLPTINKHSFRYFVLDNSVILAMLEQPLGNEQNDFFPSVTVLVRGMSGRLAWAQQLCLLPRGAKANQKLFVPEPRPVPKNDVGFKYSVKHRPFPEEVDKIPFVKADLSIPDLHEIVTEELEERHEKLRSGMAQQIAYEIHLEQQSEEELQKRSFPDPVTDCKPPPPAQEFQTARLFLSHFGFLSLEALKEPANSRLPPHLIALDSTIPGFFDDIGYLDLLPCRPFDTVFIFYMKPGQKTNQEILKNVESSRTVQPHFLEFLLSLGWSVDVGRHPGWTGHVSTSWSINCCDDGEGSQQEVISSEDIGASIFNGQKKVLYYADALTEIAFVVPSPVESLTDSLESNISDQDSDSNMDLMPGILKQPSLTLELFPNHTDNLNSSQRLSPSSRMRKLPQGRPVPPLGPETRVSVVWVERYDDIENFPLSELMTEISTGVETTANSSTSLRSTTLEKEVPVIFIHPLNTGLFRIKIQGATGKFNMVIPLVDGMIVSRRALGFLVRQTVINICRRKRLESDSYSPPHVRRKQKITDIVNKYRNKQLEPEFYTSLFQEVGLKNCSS
UniProt P07910: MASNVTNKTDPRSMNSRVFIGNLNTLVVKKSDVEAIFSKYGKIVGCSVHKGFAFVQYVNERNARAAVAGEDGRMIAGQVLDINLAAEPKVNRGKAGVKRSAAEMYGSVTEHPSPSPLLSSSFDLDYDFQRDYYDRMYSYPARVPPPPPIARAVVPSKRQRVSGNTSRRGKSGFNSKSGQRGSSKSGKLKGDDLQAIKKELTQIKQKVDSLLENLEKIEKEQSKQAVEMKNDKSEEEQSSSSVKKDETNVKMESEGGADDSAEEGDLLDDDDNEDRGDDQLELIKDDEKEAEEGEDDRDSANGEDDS
UniProt O95168, whole entry: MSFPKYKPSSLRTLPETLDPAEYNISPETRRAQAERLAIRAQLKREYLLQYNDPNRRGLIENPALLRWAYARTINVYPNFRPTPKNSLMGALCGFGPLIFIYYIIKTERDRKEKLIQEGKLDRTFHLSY
UniProt O15162: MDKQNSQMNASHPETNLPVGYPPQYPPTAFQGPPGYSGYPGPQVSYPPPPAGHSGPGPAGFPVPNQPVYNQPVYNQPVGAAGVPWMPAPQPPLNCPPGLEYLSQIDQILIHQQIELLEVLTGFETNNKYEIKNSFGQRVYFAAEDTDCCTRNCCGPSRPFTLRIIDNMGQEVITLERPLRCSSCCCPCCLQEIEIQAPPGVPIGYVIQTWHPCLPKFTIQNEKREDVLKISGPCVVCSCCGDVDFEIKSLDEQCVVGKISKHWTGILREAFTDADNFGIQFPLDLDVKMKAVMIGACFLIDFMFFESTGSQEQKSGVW
UniProt P51617, whole entry, looked up: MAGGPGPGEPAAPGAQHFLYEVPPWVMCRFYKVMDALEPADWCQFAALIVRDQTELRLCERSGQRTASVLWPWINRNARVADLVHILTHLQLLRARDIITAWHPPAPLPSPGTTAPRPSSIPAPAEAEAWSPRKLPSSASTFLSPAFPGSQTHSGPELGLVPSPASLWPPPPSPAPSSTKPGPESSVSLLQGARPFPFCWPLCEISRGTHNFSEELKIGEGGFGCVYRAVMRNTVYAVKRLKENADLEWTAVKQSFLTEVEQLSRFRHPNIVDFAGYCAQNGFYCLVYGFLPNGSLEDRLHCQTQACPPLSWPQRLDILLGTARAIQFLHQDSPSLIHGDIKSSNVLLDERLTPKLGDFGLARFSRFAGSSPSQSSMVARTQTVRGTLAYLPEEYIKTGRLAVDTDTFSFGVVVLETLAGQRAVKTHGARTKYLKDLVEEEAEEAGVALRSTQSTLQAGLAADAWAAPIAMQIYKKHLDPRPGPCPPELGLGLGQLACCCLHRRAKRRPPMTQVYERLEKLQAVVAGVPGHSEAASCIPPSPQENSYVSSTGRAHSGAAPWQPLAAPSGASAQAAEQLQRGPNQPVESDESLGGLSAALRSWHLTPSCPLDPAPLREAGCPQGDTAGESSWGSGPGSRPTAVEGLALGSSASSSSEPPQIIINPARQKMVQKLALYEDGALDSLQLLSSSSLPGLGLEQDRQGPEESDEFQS
UniProt Q86WB0: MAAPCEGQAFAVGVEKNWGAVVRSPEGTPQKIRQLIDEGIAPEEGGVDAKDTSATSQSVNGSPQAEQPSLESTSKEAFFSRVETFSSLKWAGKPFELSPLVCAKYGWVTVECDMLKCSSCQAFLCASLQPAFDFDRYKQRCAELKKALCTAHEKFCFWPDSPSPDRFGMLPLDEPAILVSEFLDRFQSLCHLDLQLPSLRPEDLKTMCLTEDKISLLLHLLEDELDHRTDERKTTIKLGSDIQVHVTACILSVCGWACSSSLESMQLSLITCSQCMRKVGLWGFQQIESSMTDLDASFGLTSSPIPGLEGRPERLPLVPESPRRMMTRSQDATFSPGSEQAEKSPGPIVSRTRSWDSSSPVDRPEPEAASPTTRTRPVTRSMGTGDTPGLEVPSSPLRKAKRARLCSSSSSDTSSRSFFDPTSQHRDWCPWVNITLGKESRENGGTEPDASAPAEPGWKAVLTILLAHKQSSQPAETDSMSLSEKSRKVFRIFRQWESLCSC
UniProt Q9Y312: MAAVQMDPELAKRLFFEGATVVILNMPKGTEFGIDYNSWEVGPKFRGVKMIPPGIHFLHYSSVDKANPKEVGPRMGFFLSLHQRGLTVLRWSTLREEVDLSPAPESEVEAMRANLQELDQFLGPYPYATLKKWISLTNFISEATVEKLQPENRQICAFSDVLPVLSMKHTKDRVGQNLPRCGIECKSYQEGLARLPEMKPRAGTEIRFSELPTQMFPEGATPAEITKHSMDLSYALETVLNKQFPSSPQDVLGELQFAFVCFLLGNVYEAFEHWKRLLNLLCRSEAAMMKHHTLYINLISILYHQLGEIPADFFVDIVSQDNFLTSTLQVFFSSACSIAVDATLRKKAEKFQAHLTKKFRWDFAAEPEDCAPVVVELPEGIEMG
UniProt Q8TEB9: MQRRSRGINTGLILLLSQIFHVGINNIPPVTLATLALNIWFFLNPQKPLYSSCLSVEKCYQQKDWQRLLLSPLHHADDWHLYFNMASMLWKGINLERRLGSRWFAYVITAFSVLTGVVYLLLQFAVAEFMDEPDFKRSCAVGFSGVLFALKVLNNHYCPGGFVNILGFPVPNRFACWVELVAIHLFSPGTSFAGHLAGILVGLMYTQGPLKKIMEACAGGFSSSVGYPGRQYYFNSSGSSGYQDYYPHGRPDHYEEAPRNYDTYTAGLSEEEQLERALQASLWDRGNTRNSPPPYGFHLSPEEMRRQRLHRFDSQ
UniProt Q9NYZ1: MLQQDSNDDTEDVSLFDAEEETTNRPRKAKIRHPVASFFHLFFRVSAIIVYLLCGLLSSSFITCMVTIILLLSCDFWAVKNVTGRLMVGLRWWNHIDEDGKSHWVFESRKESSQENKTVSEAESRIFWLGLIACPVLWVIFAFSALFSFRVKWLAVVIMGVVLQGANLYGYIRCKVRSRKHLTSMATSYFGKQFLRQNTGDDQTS
UniProt P05107, whole entry: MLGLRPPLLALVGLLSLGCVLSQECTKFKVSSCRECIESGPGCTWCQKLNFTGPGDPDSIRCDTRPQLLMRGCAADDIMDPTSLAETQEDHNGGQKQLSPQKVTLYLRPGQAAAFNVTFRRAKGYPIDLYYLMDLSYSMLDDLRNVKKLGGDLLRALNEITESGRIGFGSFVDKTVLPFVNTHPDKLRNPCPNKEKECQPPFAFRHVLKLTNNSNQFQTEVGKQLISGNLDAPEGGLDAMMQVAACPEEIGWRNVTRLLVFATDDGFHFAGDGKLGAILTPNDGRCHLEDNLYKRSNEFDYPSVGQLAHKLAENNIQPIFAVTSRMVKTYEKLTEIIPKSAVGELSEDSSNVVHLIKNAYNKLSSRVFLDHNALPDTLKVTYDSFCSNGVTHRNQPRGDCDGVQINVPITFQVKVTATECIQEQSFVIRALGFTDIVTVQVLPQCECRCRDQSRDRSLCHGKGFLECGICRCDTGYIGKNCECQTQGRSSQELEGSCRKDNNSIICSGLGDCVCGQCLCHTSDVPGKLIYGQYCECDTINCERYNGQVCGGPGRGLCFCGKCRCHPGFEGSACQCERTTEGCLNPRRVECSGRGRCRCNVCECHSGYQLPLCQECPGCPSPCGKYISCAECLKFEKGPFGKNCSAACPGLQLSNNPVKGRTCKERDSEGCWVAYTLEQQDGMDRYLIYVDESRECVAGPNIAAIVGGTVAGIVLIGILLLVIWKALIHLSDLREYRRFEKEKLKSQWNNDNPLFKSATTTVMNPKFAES
UniProt P29323: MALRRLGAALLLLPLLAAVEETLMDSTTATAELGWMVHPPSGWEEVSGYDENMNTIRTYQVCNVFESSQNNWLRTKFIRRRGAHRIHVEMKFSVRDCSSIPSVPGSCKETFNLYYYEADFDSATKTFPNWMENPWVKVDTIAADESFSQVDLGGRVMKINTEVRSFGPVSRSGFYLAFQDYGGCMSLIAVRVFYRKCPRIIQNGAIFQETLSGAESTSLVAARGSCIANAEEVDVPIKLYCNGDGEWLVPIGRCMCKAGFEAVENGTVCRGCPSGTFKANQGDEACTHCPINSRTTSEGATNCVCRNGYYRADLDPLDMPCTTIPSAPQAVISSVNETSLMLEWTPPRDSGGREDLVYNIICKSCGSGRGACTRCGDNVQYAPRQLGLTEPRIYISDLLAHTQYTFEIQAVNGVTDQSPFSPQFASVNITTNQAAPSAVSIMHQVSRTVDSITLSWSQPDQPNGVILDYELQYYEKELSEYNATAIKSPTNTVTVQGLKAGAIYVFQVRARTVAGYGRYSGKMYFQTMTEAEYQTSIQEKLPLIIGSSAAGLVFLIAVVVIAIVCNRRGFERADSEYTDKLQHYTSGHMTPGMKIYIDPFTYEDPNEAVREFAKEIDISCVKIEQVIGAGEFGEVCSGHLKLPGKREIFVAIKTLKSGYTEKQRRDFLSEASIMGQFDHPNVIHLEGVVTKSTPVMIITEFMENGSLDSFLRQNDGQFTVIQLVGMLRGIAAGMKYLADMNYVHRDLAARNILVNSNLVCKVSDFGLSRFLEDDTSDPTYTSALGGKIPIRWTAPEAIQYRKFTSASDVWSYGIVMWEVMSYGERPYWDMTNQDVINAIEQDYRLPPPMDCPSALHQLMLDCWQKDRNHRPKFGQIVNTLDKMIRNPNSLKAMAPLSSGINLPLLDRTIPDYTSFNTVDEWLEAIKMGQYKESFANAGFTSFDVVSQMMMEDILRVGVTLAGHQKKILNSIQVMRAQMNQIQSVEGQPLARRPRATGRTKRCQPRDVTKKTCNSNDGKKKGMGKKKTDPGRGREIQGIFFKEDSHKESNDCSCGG
UniProt Q9UFF9, whole entry: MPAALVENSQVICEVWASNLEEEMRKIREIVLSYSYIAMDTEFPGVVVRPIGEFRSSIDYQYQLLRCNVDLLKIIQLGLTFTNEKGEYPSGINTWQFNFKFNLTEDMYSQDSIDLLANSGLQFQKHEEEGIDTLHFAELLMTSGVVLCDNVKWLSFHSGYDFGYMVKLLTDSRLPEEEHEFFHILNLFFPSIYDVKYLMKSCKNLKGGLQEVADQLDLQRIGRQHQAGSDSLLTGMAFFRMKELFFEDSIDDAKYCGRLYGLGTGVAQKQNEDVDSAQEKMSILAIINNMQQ

Compound: Nc1ncnc2c1ncn2[C@@H]1O[C@H](COP(=O)(O)OP(=O)(O)OP(=O)(O)O)[C@@H](O)[C@H]1O [adenosine triphosphate]
Assay: NP40-soluble protein abundance relative to vehicle (solubility fold change) (ratio); higher = more soluble protein in presence of ATP
Procedure, shortened: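 Data come from three independent experiments in which Dounce-homogenised Jurkat crude lysate was treated at eight concentrations from 0.1 to 10 mM. Treatment ran 10 min at room temperature and then 3 min at 37 °C, after which 0.8% NP40 and benzonase were added for 60 min at 4 °C before ultracentrifugation. The supernatant underwent TMT labelling and LC-MS/MS, and vsn-normalised intensities were expressed as fold change against the detergent-processed vehicle in each replicate.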

A2A2F0 and related entries (UniProt Q86X10)
NP40-soluble protein abundance (concentration: 1mM): 1 ± 0.067
NP40-soluble protein abundance (concentration: 2mM): 1.02 ± 0.033
NP40-soluble protein abundance (concentration: 4mM): 1.04 ± 0.027
NP40-soluble protein abundance (concentration: 6mM): 0.997 ± 0.034
NP40-soluble protein abundance (concentration: 8mM): 1.01 ± 0.042
NP40-soluble protein abundance (concentration: 10mM): 1.01 ± 0.02

B2R5W2 and related entries (UniProt P07910)
NP40-soluble protein abundance (concentration: 1mM): 0.981 ± 0.087
NP40-soluble protein abundance (concentration: 2mM): 0.926 ± 0.14
NP40-soluble protein abundance (concentration: 4mM): 0.899 ± 0.1
NP40-soluble protein abundance (concentration: 6mM): 0.987 ± 0.16
NP40-soluble protein abundance (concentration: 8mM): 0.896 ± 0.098
NP40-soluble protein abundance (concentration: 10mM): 0.899 ± 0.1

C9JXQ9 and related entries (UniProt O95168)
NP40-soluble protein abundance (concentration: 1mM): 0.925 ± 0.061
NP40-soluble protein abundance (concentration: 2mM): 0.859 ± 0.033
NP40-soluble protein abundance (concentration: 4mM): 0.8895 ± 0.0084
NP40-soluble protein abundance (concentration: 6mM): 0.782 ± 0.014
NP40-soluble protein abundance (concentration: 8mM): 0.881 ± 0.043
NP40-soluble protein abundance (concentration: 10mM): 0.856 ± 0.041

B4E0T2 and related entries (UniProt P50542)
NP40-soluble protein abundance (concentration: 1mM): 0.975 ± 0.039
NP40-soluble protein abundance (concentration: 2mM): 0.991 ± 0.063
NP40-soluble protein abundance (concentration: 4mM): 0.964 ± 0.043
NP40-soluble protein abundance (concentration: 6mM): 0.997 ± 0.025
NP40-soluble protein abundance (concentration: 8mM): 0.938 ± 0.036
NP40-soluble protein abundance (concentration: 10mM): 0.942 ± 0.023

C9J7K9 and related entries (UniProt O15162)
NP40-soluble protein abundance (concentration: 1mM): 0.931 ± 0.14
NP40-soluble protein abundance (concentration: 2mM): 0.911 ± 0.1
NP40-soluble protein abundance (concentration: 4mM): 0.935 ± 0.12
NP40-soluble protein abundance (concentration: 6mM): 0.883 ± 0.052
NP40-soluble protein abundance (concentration: 8mM): 0.944 ± 0.13
NP40-soluble protein abundance (concentration: 10mM): 0.942 ± 0.057

D3YTB5 and related entries (UniProt P51617)
NP40-soluble protein abundance (concentration: 1mM): 1.12 ± 0.064
NP40-soluble protein abundance (concentration: 2mM): 1.15 ± 0.092
NP40-soluble protein abundance (concentration: 4mM): 1.15 ± 0.075
NP40-soluble protein abundance (concentration: 6mM): 1.12 ± 0.044
NP40-soluble protein abundance (concentration: 8mM): 1.12 ± 0.035
NP40-soluble protein abundance (concentration: 10mM): 1.16 ± 0.067

C9J0I9 and related entries (UniProt Q86WB0)
NP40-soluble protein abundance (concentration: 1mM): 0.995 ± 0.024
NP40-soluble protein abundance (concentration: 2mM): 1 ± 0.019
NP40-soluble protein abundance (concentration: 4mM): 0.98 ± 0.035
NP40-soluble protein abundance (concentration: 6mM): 0.963 ± 0.041
NP40-soluble protein abundance (concentration: 8mM): 0.961 ± 0.041
NP40-soluble protein abundance (concentration: 10mM): 0.964 ± 0.023

A2A2Q9 and related entries (UniProt Q9Y312)
NP40-soluble protein abundance (concentration: 1mM): 0.924 ± 0.056
NP40-soluble protein abundance (concentration: 2mM): 0.961 ± 0.013
NP40-soluble protein abundance (concentration: 4mM): 0.963 ± 0.033
NP40-soluble protein abundance (concentration: 6mM): 0.982 ± 0.07
NP40-soluble protein abundance (concentration: 8mM): 0.945 ± 0.03
NP40-soluble protein abundance (concentration: 10mM): 0.959 ± 0.035

B3KRD8 and related entries (UniProt O76054)
NP40-soluble protein abundance (concentration: 1mM): 0.991 ± 0.054
NP40-soluble protein abundance (concentration: 2mM): 0.998 ± 0.021
NP40-soluble protein abundance (concentration: 4mM): 0.934 ± 0.059
NP40-soluble protein abundance (concentration: 6mM): 0.981 ± 0.084
NP40-soluble protein abundance (concentration: 8mM): 0.906 ± 0.044
NP40-soluble protein abundance (concentration: 10mM): 0.923 ± 0.011

B9A054 and related entries (UniProt Q8TEB9)
NP40-soluble protein abundance (concentration: 1mM): 0.969 ± 0.078
NP40-soluble protein abundance (concentration: 2mM): 0.98777 ± 0.00047
NP40-soluble protein abundance (concentration: 4mM): 0.959 ± 0.026
NP40-soluble protein abundance (concentration: 6mM): 1.03 ± 0.044
NP40-soluble protein abundance (concentration: 8mM): 0.962 ± 0.11
NP40-soluble protein abundance (concentration: 10mM): 0.981 ± 0.076

C9JYS5 and related entries (UniProt J3QL63+J3QL47+Q9NYZ1+C9JYS5)
NP40-soluble protein abundance (concentration: 1mM): 0.993 ± 0.14
NP40-soluble protein abundance (concentration: 2mM): 0.944 ± 0.14
NP40-soluble protein abundance (concentration: 4mM): 0.882 ± 0.092
NP40-soluble protein abundance (concentration: 6mM): 0.898 ± 0.059
NP40-soluble protein abundance (concentration: 8mM): 0.998 ± 0.071
NP40-soluble protein abundance (concentration: 10mM): 0.914 ± 0.074

D3DSM0 and related entries (UniProt P05107)
NP40-soluble protein abundance (concentration: 1mM): 0.9898 ± 0.0062
NP40-soluble protein abundance (concentration: 2mM): 0.9833 ± 0.0092
NP40-soluble protein abundance (concentration: 4mM): 0.978 ± 0.03
NP40-soluble protein abundance (concentration: 6mM): 1 ± 0.0044
NP40-soluble protein abundance (concentration: 8mM): 0.967 ± 0.038
NP40-soluble protein abundance (concentration: 10mM): 0.946 ± 0.017

B1AKC9 and related entries (UniProt P29323)
NP40-soluble protein abundance (concentration: 1mM): 1.21 ± 0.21
NP40-soluble protein abundance (concentration: 2mM): 1.14 ± 0.23
NP40-soluble protein abundance (concentration: 4mM): 1.11 ± 0.33
NP40-soluble protein abundance (concentration: 6mM): 0.996 ± 0.18
NP40-soluble protein abundance (concentration: 8mM): 1.03 ± 0.13
NP40-soluble protein abundance (concentration: 10mM): 1.06 ± 0.15

C9JQV3 and related entries (UniProt Q8N1F8)
NP40-soluble protein abundance (concentration: 1mM): 0.996 ± 0.045
NP40-soluble protein abundance (concentration: 2mM): 1.03 ± 0.038
NP40-soluble protein abundance (concentration: 4mM): 1.04 ± 0.013
NP40-soluble protein abundance (concentration: 6mM): 0.982 ± 0.04
NP40-soluble protein abundance (concentration: 8mM): 0.994 ± 0.097
NP40-soluble protein abundance (concentration: 10mM): 1.01 ± 0.026

B7Z9U0 and related entries (UniProt Q9UFF9)
NP40-soluble protein abundance (concentration: 1mM): 1.05 ± 0.12
NP40-soluble protein abundance (concentration: 2mM): 1.07 ± 0.098
NP40-soluble protein abundance (concentration: 4mM): 1.139 ± 0.011
NP40-soluble protein abundance (concentration: 6mM): 1.21 ± 0.1
NP40-soluble protein abundance (concentration: 8mM): 1.22 ± 0.077
NP40-soluble protein abundance (concentration: 10mM): 1.18 ± 0.17
